Experimental data taken from patent US20040214763A1 (AVENTIS PHARMA S A, published 2004).
No constants are given. Whether binding was seen depends on the method and setting. Some binding calls cover weakened binding; strength is not graded here. Sequences can lack the tags named with a protein.

Chains of the proteins cited; added tags and fusions are not shown. Residues count along the entry.
UniProt O60260, residues 135-290: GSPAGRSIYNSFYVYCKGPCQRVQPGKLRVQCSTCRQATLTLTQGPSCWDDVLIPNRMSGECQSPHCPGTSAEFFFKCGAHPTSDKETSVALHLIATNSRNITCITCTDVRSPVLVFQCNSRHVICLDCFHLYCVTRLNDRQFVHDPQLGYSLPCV

Biological target: fusion protein between the central portion of parkin (amino acids 135-290) and the bacterial repressor LexA, expressed from pLex9-Parkin (135-290) (UniProt O60260)
Experiment: yeast two-hybrid, b-Gal activity assay in strain L40

B1: p38 protein (product of the human gene JTV1) fused to the transactivating domain of GAL4, from library plasmid pGAD-HeLa7 (protein, not shown: large carriers)
chain: MPMYQVKPYHGGGAPLRVELPTCMYRLPNVHGRSYGPAPGAGHVQEESNLSLQALESRQDDILKRLYELKAAVDGLSKMIQTPDADLDVTNIIQADEPTTLTTNALDLNSVLGKDYGALKDIVINANPASPPLSLLVLHRLLCEHFRVLSTVHTHSSVKSVPENLLKCFGEQNKKQPRQDYQLGFTLIWKNVPKTQMKFSIQTMCPIEGEGNIARFLFSLFGQKHNAVNATLIDSWVDIAIFQLKEGSSKEKAAVFRSMNSALGKSPWLAGNELTVADVVLWSVLQQIGGCSVTVPANVQRWMRSCENLAPFNTALKLLK
**Q.** For B1, which binding is on record?
**A.** binds
